# Structures can show the parent of a compound that is named as a salt. This is one part of the list. Baselines shift from plate to plate; read single values as rough.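 A clonal Drosophila S2 line expresses Smoothened bearing circularly permuted GFP in its cytoplasmic tail; Hh-driven phosphorylation opens an inhibitory loop, making it fluoresce. Flow cytometry measured per-cell fluorescence, normalized to Hh-stimulated untreated cells. Hits were inhibitor groups with shared pathway targets that consistently shifted fluorescence, not individual compounds.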
# Test system: Drosophila S2 cl14 SmoIP sensor cells
# Test: normalized SmoIP GFP fluorescence (untreated unstimulated = 0%, untreated Hh-stimulated = 100%); higher = more Smo activation sensor fluorescence
# Conditions: compound concentration: 15 uM, 24 h
# [1] = stimulation: Hh conditioned medium (+Hh)
# [2] = stimulation: mock conditioned medium (-Hh)
SMILES,normalized SmoIP GFP fluorescence [1] [%],normalized SmoIP GFP fluorescence [2] [%]
Cc1nc(Nc2ncc(C(=O)Nc3c(C)cccc3Cl)s2)cc(N2CCN(CCO)CC2)n1 [Dasatinib],194,60.9
CCCC(CCC)C(=O)O [Divalproex-sodium],131,-18.7
Cc1c(OCC(F)(F)F)ccnc1C[S+]([O-])c1nc2ccccc2[nH]1 (stereo unspecified) [Lansoprazole],133,8.14
Cc1ccc(-c2cc(C(F)(F)F)nn2-c2ccc(S(N)(=O)=O)cc2)cc1 [Celecoxib],172,7.06
CCCCc1oc2ccccc2c1C(=O)c1cc(I)c(OCCN(CC)CC)c(I)c1 [amiodarone-hcl],223,30.4
CC1CCc2cc(F)cc3c(=O)c(C(=O)O)cn1c23 (stereo unspecified) [flumequine],113,-3.05
Cc1cccc(-c2nn3c(c2-c2ccnc4ccc(C(N)=O)cc24)CCC3)n1,109,-9.4
O=C(COc1cccc2c(=O)[nH]ccc12)c1ccccc1,226,39
Nc1nc(N)c2nc(-c3ccccc3)c(N)nc2n1 [triamterene],138,2.12
CCCS(=O)(=O)Nc1ccc(F)c(C(=O)c2c[nH]c3ncc(Cl)cc23)c1F,214,37.9
C=CC(=O)Nc1ccc2ncnc(Nc3ccc(OCc4cccc(F)c4)c(Cl)c3)c2c1,139,5.65
Cc1cccc(-c2[nH]ncc2-c2ccc3ncccc3n2)n1 [repsox],175,30.3
Cc1cc(C)c2c(c1)[C@@H](N(Cc1cc(C(F)(F)F)cc(C(F)(F)F)c1)c1nnn(C)n1)CCCN2CC1CCC(C(=O)O)CC1 (stereo partly specified),119,13.7
CC(C)C(=O)Oc1ccc(CO)cc1[C@H](CCN(C(C)C)C(C)C)c1ccccc1 [Fesoterodine-fumarate-Toviaz],131,-7.78
Nc1c(Br)cc(Br)cc1CN[C@H]1CC[C@H](O)CC1 [ambroxol-hcl],126,8.14
Cc1cc2c(F)c(Oc3ncnn4cc(OC[C@@H](C)OC(=O)[C@H](C)N)c(C)c34)ccc2[nH]1 [Brivanib-alaninate],158,40.6
N#CC[C@H](C1CCCC1)n1cc(-c2ncnc3[nH]ccc23)cn1,89,22.8

SMILES,normalized SmoIP GFP fluorescence [1] [%],normalized SmoIP GFP fluorescence [2] [%]
CC[C@H](C)C(=O)O[C@@H]1C[C@@H](C)C=C2C=C[C@H](C)[C@@H](CC[C@@H]3C[C@@H](O)CC(=O)O3)[C@H]21 [lovastatin-mevacor],110,13
COc1ccc(C[C@H](NC(=O)[C@H](C)NC(=O)CN2CCOCC2)C(=O)N[C@@H](Cc2ccccc2)C(=O)[C@@]2(C)CO2)cc1,72.6,33.1
Cc1nc(C(=O)NCC(=O)O)c(O)c2ccc(Oc3ccccc3)cc12,155,16.8
CN(C)CCN(Cc1ccccc1)c1ccccn1 [tripelennamine-hydrochloride],124,-0.264
OCc1ccc(-c2ccc(-c3ccc(CO)s3)o2)s1,126,9.51
CC(C)c1nc(CN(C)C(=O)N[C@@H](CCN2CCOCC2)C(=O)N[C@H](CC[C@H](Cc2ccccc2)NC(=O)OCc2cncs2)Cc2ccccc2)cs1 [cobicistat-gs-9350],176,58.6
COCCCC/C(=N\OCCN)c1ccc(C(F)(F)F)cc1 [Fluvoxamine-maleate],136,24.3
O=c1cc(-c2ccc(O)cc2)oc2cc(O)cc(O)c12 [Apigenin],122,-13.2
N#Cc1c(O)c2c(-c3ccc(-c4ccccc4O)cc3)csc2[nH]c1=O,162,-8.59
COc1cc(F)c(C(C)C)cc1-c1ccc(C(F)(F)F)cc1CN1C(=O)O[C@H](c2cc(C(F)(F)F)cc(C(F)(F)F)c2)[C@@H]1C [anacetrapib-mk-0859],148,-16.8
CC(=O)Oc1cc(C(F)(F)F)ccc1C(=O)O [triflusal],117,-1.51
COc1ccc(-c2nc3ccc(C4=NNC(=O)CC4C)cc3[nH]2)cc1 (stereo unspecified) [Pimobendan(Vetmedin)],238,51.7
O=C(c1ccc(F)cc1)N1CCC[C@H](c2nc(-c3ccc(F)cc3)no2)C1,148,19.1
"Clc1ccc(Nc2nnc(Cc3ccncc3)c3ccccc23)cc1 [Vatalanib,Dihydrochloride-Salt]",174,7.91
Cc1cc(C)c(Nc2ccnc(Nc3ccc(C#N)cc3)n2)c(C)c1 [dapivirine],57.4,43.3
Cc1nc(NC(=O)N2CCC[C@H]2C(N)=O)sc1-c1ccnc(C(C)(C)C(F)(F)F)c1,96.1,-6.97

# 3 structures from above, ordered by heavy-atom count, ascending.
SMILES,normalized SmoIP GFP fluorescence [1] [%],normalized SmoIP GFP fluorescence [2] [%]
CCCC(CCC)C(=O)O [Divalproex-sodium],131,-18.7
O=C(c1ccc(F)cc1)N1CCC[C@H](c2nc(-c3ccc(F)cc3)no2)C1,148,19.1
CC[C@H](C)C(=O)O[C@@H]1C[C@@H](C)C=C2C=C[C@H](C)[C@@H](CC[C@@H]3C[C@@H](O)CC(=O)O3)[C@H]21 [lovastatin-mevacor],110,13
